# From PubChem BioAssay AID1487 (National Center for Advancing Translational Sciences (NCATS), 2009)
# The other results are listed elsewhere or left out. Shown are side measurements of this screen, not its main read-out; they come without a call. The list favours compounds with an active or inconclusive main result. Words in brackets tell the shape of the fitted curve; partial curves, single points and poor fits give uncertain potencies.
# Assay: qHTS Assay for Modulators of Lamin A Splicing
# Conditions: HeLa LMNA splicing GFP/RFP minigene ratio, 48 h
# Outline: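 S3 HeLa stable clones carrying a lamin A-EGFP splicing minigene plus DsRed2 were seeded at 600 cells/well in Opti-MEM with 2% FBS, pin-dosed and incubated 48 h at 37°C. Acumen cytometry (488 nm) gave the GFP/RFP total-intensity ratio.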
# [1] = measured here: GFP splicing reporter channel
# [2] = measured here: RFP viability control channel
SMILES,AC50 [1],AC50 [2]
CN(Cc1ccccc1)C(=S)Nc1cccnc1,"0.00501 µM [rising, full curve, poor fit]",–
O=C(OCC(=O)N1CCc2ccccc2C1)c1cccnc1Cl,–,"0.00794 µM [rising, full curve]"
COC(=O)c1ccc(NC(=O)c2c(NCc3ccc(OC)c(OC)c3)sc3c2CCCC3)cc1,–,"20 µM [rising, partial curve]"
Cc1nn(-c2ccccc2)c(C)c1/C=N/NC(=O)c1cc(-c2ccc(Br)s2)[nH]n1,"25.1 µM [falling, single point]","3.16 µM [falling, single point]"
Cc1cc(C(=O)CSc2nnc(C3COc4ccccc4O3)n2C)c(C)n1-c1ccc(F)cc1 (configuration not stated),–,"35.5 µM [rising, single point]"
CN(c1cccc(NC(=O)CSc2ccc(Cl)cc2)c1)S(C)(=O)=O,–,"35.5 µM [rising, single point]"
CCCCOc1ccc(C(=O)NCCc2csc3nc(-c4ccccc4F)nn23)cc1,"8.91 µM [falling, partial curve, poor fit]","14.1 µM [falling, partial curve, poor fit]"
COc1ccc(Cn2ccnc2)cc1Br,"0.00501 µM [rising, full curve, poor fit]",–
CN1C(=O)c2ccccc2N(C)C1c1ccc2c(c1)OCO2 (configuration not stated),–,"11.2 µM [rising, partial curve, poor fit]"
CCN(CC)S(=O)(=O)c1ccc(C2=NOC3(C2)N(C)c2ccccc2C3(C)C)cc1 (configuration not stated),"5.62 µM [rising, partial curve]","6.31 µM [rising, partial curve]"
CCOC(=S)SCC(=O)Nc1nc(-c2ccc(Br)cc2)cs1,"35.5 µM [falling, single point]","3.16 µM [falling, partial curve]"
COc1ccc(-c2[nH]ncc2/C=C(/C#N)C(=O)NC2CCCCCC2)cc1,–,"35.5 µM [rising, single point]"
O=c1cc(-c2ccccc2)[nH]c2ccccc12,–,"3.16 µM [rising, full curve]"
COc1ccc(CSc2nnnn2-c2ccccc2)cc1,–,"31.6 µM [rising, single point]"
Cc1ccccc1C(=O)Nc1ccc(C(=O)OCc2cc(=O)n3c4c(sc3n2)CCCC4)cc1,–,"11.2 µM [rising, partial curve]"
Brc1ccc(-c2csc(N3CCOCC3)n2)cc1,–,"10 µM [falling, partial curve]"
Cc1ccc2[nH]c3c(NCc4ccco4)ncnc3c2c1,"2.82 µM [rising, single point]","3.16 µM [rising, full curve]"
C=CCCC(=O)Nc1nc(C)c(-c2csc(Nc3cc(OC)ccc3OC)n2)s1,"5.62 µM [falling, single point]","1 µM [falling, single point]"
COc1ccc(CNC(=O)C2CC(c3ccc(OC)cc3)=NO2)cc1 (configuration not stated),–,"8.91 µM [falling, partial curve]"

SMILES,AC50 [1],AC50 [2]
CCN(CC)CCn1c(NCc2cc(OC)ccc2OC)nc2ccccc21,–,"20 µM [rising, single point]"
CCOc1cc(C(=O)Nc2ccc(F)cc2)cc(Br)c1OC,"15.8 µM [falling, single point]",–
O=C(/C=C/c1ccccc1)Nc1nc(-c2ccncc2)cs1,"20 µM [falling, partial curve, poor fit]","0.0141 µM [falling, full curve, poor fit]"
Cc1ccc(-c2nnc3n2N=C(c2ccccc2)CS3)cc1,–,"10 µM [rising, partial curve, poor fit]"
Cc1ccc(S(=O)(=O)N2CCC(C(=O)N/N=C/c3ccncc3)CC2)cc1,–,"5.01 µM [falling, partial curve, poor fit]"
COc1ccc(-c2csc(C3=C(O)CN(Cc4ccc(Cl)cc4)C3=N)n2)cc1OC,–,"17.8 µM [falling, single point]"
Nc1ncnc2c1ncn2C1OC(CO)C(O)C1O (configuration not stated),"0.282 µM [falling, full curve]","22.4 µM [falling, partial curve, poor fit]"
Cc1cc(C)nc(Nc2nc(=O)c3ccccc3s2)n1,"35.5 µM [rising, single point]","17.8 µM [rising, single point]"
Cc1cc(C)nc(Nc2n[nH]c(-c3ccc(C(C)(C)C)cc3)n2)n1,"0.0501 µM [falling, full curve]",–
Cc1c(C)c2c(c(C)c1O)CC[C@@](C)(CCC[C@@H](C)CCC[C@@H](C)CCCC(C)C)O2,–,"2.82 µM [rising, single point]"
COc1ccccc1-c1nc(C#N)c(N2CCN(c3cccc(Cl)c3)CC2)o1,"14.1 µM [rising, single point]","12.6 µM [rising, partial curve]"
CCSc1nc2c(c(=O)n1Cc1ccccc1)SC(C)C2 (configuration not stated),–,"31.6 µM [rising, single point]"
Cc1ccc(NC(CNS(=O)(=O)c2ccc(Cl)cc2)c2ccccc2)cc1 (configuration not stated),"25.1 µM [falling, single point]","22.4 µM [falling, partial curve]"
COc1ccccc1-n1c(CCn2nc(C)c(Br)c2C)n[nH]c1=S,"35.5 µM [rising, single point]","35.5 µM [rising, single point]"
CCOc1ccccc1NC(=O)N1CCC(c2nc3ccc(C)cc3[nH]2)CC1,"17.8 µM [rising, partial curve, poor fit]",–
Cc1nn(-c2ccccc2)c2sc(C(=O)N3CCCCC3)cc12,"7.08 µM [rising, partial curve, poor fit]","12.6 µM [rising, partial curve]"
c1cc2c(cc1-c1cnc3n1CCC3)OCCO2,–,"5.01 µM [falling, partial curve]"
Cc1ccc2[nH]c(=O)c(CN(Cc3cccnc3)C(=O)c3ccncc3)cc2c1,–,"35.5 µM [rising, single point]"
COc1cccc2cccc(/C=N/n3cnnc3)c12,–,"14.1 µM [rising, single point]"

# No new results follow: an excerpt of the list.
SMILES,AC50 [1],AC50 [2]
COc1ccc(Cn2ccnc2)cc1Br,"0.00501 µM [rising, full curve, poor fit]",–
CN1C(=O)c2ccccc2N(C)C1c1ccc2c(c1)OCO2 (configuration not stated),–,"11.2 µM [rising, partial curve, poor fit]"
CCN(CC)S(=O)(=O)c1ccc(C2=NOC3(C2)N(C)c2ccccc2C3(C)C)cc1 (configuration not stated),"5.62 µM [rising, partial curve]","6.31 µM [rising, partial curve]"
CCOC(=S)SCC(=O)Nc1nc(-c2ccc(Br)cc2)cs1,"35.5 µM [falling, single point]","3.16 µM [falling, partial curve]"

# Remaining list, next part.

SMILES,AC50 [1],AC50 [2]
CC(C)c1ccc2c(c1)CCC1C(C)(C(N)=O)CCCC21C (configuration not stated),"35.5 µM [rising, single point]","12.6 µM [rising, single point]"
CC(C)c1ccc(N(C(=O)c2cc3ccccc3oc2=O)C2C=CS(=O)(=O)C2)cc1 (configuration not stated),–,"8.91 µM [rising, partial curve]"
CSc1ccc(NC(=O)N2CC=C(n3c(=O)[nH]c4ccccc43)CC2)cc1,"31.6 µM [rising, single point]","31.6 µM [rising, single point]"
CCOC(=O)c1ccc(-n2c(CN(CC)CC)nc3ccc([N+](=O)[O-])cc3c2=O)cc1,"3.55 µM [rising, partial curve, poor fit]","2.51 µM [rising, partial curve, poor fit]"
Oc1ccc2ccccc2c1/C=N/Nc1nnc(-c2ncc[nH]2)c2ccccc12,–,"7.94 µM [rising, partial curve]"
CN(C)c1nc(-c2ccc3c(c2)OCO3)nc2ccccc12,"20 µM [falling, single point]",–
COc1ccc(NC(=O)CSc2nc3ccccc3nc2Cc2ccc(C)cc2)cc1Cl,"0.2 µM [rising, partial curve]",–
O=C(CSc1nc2ccccc2c(=O)[nH]1)Nc1ccc(S(=O)(=O)N2CCCC2)cc1,"11.2 µM [rising, partial curve]","11.2 µM [rising, partial curve]"
O=C1C2CC=CCC2C(=O)N1c1ccc(NCCc2ccc(Cl)cc2)c([N+](=O)[O-])c1 (configuration not stated),"12.6 µM [rising, partial curve, poor fit]","15.8 µM [rising, partial curve]"
O=C(Nc1cccc(Cl)c1)NC1CCCCC1,–,"11.2 µM [rising, single point]"
CCN(CC)c1ccc2cc(-c3nc(-c4ccc(Cl)cc4Cl)cs3)c(=O)oc2c1,–,"12.6 µM [falling, partial curve, poor fit]"
CCn1cc([N+](=O)[O-])c(C(=O)Nc2nc(-c3ccc(C)cc3)c(C)s2)n1,"35.5 µM [falling, single point]","35.5 µM [falling, single point]"
Cc1c(-c2ccccn2)c(=O)[nH]n1-c1ccc(F)cc1,–,"2 µM [rising, partial curve, poor fit]"
CCOC(=O)c1ccccc1NS(=O)(=O)c1ccc(C)cc1,–,"12.6 µM [rising, single point]"
COc1ccc(-c2nc3c4ccccc4ccn3c2CN2CCCCC2)cc1,–,"10 µM [rising, single point]"
COC(=O)c1ccc(C(=O)OC)c(NC(=O)CN(C)Cc2cccc(Cl)c2Cl)c1,"12.6 µM [rising, partial curve]","20 µM [rising, partial curve]"
CCCCCCCCCCCCCCCCCC(=O)OC[C@@H](O)[C@H]1OC[C@H](O)[C@H]1O,"0.708 µM [falling, full curve, poor fit]",–
N=c1ccn2c(n1)O[C@H]1[C@H](O)[C@@H](CO)O[C@H]12,"0.00631 µM [falling, full curve]","0.0794 µM [rising, full curve, poor fit]"
